Laboratory results reported in publication doi:10.1101/2020.01.05.895219.
No constants are given. Whether binding was seen depends on the method and setting. Binding seen in cells or lysates may run through a third protein. Some entries that bind do so weakly or less than the wild type.

T1: ExbB (E. coli (endogenous in W3110)) (UniProt P0ABU7)
T1 sequence: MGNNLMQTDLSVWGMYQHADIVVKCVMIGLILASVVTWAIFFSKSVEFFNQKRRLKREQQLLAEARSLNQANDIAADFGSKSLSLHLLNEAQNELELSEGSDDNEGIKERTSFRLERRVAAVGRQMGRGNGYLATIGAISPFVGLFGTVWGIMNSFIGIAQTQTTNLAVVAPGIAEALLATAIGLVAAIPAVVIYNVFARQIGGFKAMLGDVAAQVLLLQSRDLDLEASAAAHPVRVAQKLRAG

T2: FepA (E. coli (endogenous in W3110)), P05825
T2 chain: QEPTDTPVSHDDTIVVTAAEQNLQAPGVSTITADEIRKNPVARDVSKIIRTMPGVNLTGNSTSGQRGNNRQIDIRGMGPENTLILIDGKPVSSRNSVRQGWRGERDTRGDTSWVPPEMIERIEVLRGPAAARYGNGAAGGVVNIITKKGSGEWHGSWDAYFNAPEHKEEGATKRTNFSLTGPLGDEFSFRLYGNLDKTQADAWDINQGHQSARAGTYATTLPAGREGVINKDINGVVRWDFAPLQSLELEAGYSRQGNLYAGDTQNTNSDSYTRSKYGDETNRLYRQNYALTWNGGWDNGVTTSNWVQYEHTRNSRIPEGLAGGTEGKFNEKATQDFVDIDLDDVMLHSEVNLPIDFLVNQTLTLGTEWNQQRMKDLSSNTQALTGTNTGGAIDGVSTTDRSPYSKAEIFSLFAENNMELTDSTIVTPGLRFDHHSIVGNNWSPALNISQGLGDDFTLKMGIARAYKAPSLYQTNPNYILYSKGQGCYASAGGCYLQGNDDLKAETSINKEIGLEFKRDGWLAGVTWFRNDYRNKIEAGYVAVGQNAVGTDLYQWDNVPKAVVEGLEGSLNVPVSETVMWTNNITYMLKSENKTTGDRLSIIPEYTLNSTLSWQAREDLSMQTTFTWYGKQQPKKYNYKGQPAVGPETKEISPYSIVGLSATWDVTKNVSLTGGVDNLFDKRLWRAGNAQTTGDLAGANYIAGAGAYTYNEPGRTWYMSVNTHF


Legend:
Assay in all cases: cross-linking
[1] = molecular target: T1, ExbB (E. coli (endogenous in W3110))
[2] = molecular target: TonB (E. coli (endogenous in W3110)) (UniProt P02929)
[3] = molecular target: ExbD (E. coli (endogenous in W3110)) (UniProt P0ABV2)
[4] = molecular target: T2, FepA (E. coli (endogenous in W3110)), …; conditions: remark: other sources report otherwise

Binder | binding [1] | binding [2] | binding [3] | binding [4]
ExbD (protein, UniProt P0ABV2 1-141) MAMHLNENLDDNGEMHDINVTPFIDVMLVLLIIFMVAAPLATVDVKVNLPASTSTPQPRPEKPVYLSVKADNSMFIGNDPVTDETMITALNALTEGKKDTTIFFRADKTVDYETLMKVMDTLHQAGYLKIGLVGEETAKAK | binds | binds | binds | –
TonB, P02929 1-239 (protein) MTLDLPRRFPWPTLLSVCIHGAVVAGLLYTSVHQVIELPAPAQPISVTMVTPADLEPPQAVQPPPEPVVEPEPEPEPIPEPPKEAPVVIEKPKPKPKPKPKPVKKVQEQPKRDVKPVESRPASPFENTAPARLTSSTATAATSKPVTSVASGPRALSRNQPQYPARAQALRIEGQVKVKFDVTPDGRVDNVQILSAKPANMFEREVKNAMRRWRYEPGKPGSGIVVNILFKINGTTEIQ | – | – | – | binds
